Laboratory results reported in PubChem BioAssay AID248 (DTP/NCI, 2004).
The list shows only some results of the screen, not a fair sample: it gathers tests that were run many times, whatever their T/C, doses with no T/C, and many T/C values between a quarter and a half above the control. Other doses and runs of a compound stand elsewhere. T/C gives the treated animals as a percentage of the vehicle group. Some doses have a count of surviving animals in place of a T/C: the source holds a T/C of zero for them, seemingly a mark for toxic or unscored doses. Some doses without a T/C left all or most animals alive at the check, yet need not have been tolerated: the source hardly ever lists a survival T/C far under the control, and the zero likely stands for such cases as well. Counts of survivors are from the toxicity check (mostly the fifth day) where no day follows; animals may have died later. Schedules are NCI's codes, taken here to give the interval after Q, in days (D) or hours (H), and the number of doses after X. Some schedule codes hold Z or #, which are not explained here. For survival time, the PubChem record calls one and a half times the control and up active, and a quarter to a half above the control has no call in these data; cut-offs in other NCI protocols can differ. Additions like (4×) give the number of equal values in this list. Some entries hold several experiments; the values are given in rising order. Some T/C values are followed by the survivors on the day toxicity was checked, most often the fifth; where none is given, no animal had died by that day.

Test system: L1210 leukemia ip in BDF1 mice, survival T/C
Assay: NCI In Vivo Anticancer Drug Screen. Data for tumor model L1210 Leukemia (intraperitoneal) in B6D2F1 (BDF1) mice
Conditions: higher T/C = longer survival
[1] = T/C endpoint: mean survival time, dose: 200.0 mg/kg/injection, schedule: Q01DX009 (ip), vehicle: Klucel (hydroxypropylcellulose) (HPC)
[2] = T/C endpoint: mean survival time, dose: 400.0 mg/kg/injection, schedule: Q01DX009 (ip), vehicle: Klucel (hydroxypropylcellulose) (HPC)
[3] = T/C endpoint: mean survival time, dose: 400.0 mg/kg/injection, schedule: Q04DX003 (ip), vehicle: Klucel (hydroxypropylcellulose) (HPC)
[4] = T/C endpoint: mean survival time, dose: 300.0 mg/kg/injection, schedule: Q01DX001 (ip), vehicle: saline
[5] = T/C endpoint: mean survival time, dose: 200.0 mg/kg/injection, schedule: Q04DX003 (ip), vehicle: saline with Tween-80
[6] = T/C endpoint: mean survival time, dose: 400.0 mg/kg/injection, schedule: Q04DX003 (ip), vehicle: saline with Tween-80

## CC(=O)[O][Hg][c]1cc2c(cc1O)Cc1cc([N+](=O)[O-])ccc1-2
T/C endpoint: mean survival time, dose: 100.0 mg/kg/injection, schedule: Q01DX001 (ip), vehicle: carboxymethylcellulose (CMC)
  survivor count: 0 of 4
T/C endpoint: mean survival time, dose: 200.0 mg/kg/injection, schedule: Q01DX001 (ip), vehicle: carboxymethylcellulose (CMC)
  survivor count: 0 of 4
T/C endpoint: mean survival time, dose: 400.0 mg/kg/injection, schedule: Q01DX001 (ip), vehicle: carboxymethylcellulose (CMC)
  survivor count: 0 of 4

## [O-]c1c[n+](-c2ccc(Cl)cc2Cl)no1
[1]
  survivor count: 4 of 6
[2]
  survivor count: 0 of 6

## O=C(CN1CCCCC1)c1ccc(/C=C/c2ccc(Cl)cc2)cc1
T/C endpoint: mean survival time, dose: 100.0 mg/kg/injection, schedule: Q01DX009 (ip), vehicle: Klucel (hydroxypropylcellulose) (HPC)
  survivor count: 6 of 6
[1]
  survivor count: 5 of 6
[3]
  survivor count: 6 of 6

## C#CC(=O)OCC
T/C endpoint: mean survival time, dose: 100.0 mg/kg/injection, schedule: Q01DX001 (ip), vehicle: saline with Tween-80
  survivor count: 1 of 6

## CC(=O)Nc1ccc2c(c1)C(c1ccccc1)=NCC(=O)N2
T/C endpoint: mean survival time, dose: 225.0 mg/kg/injection, schedule: Q01DX Z (ip), vehicle: carboxymethylcellulose (CMC)
  T/C: 133 % of control
T/C endpoint: mean survival time, dose: 337.0 mg/kg/injection, schedule: Q01DX Z (ip), vehicle: carboxymethylcellulose (CMC)
  survivor count: 5 of 6

## c1ccc(CC2NC2c2ccccc2)cc1 (stereo not given)
T/C endpoint: mean survival time, dose: 50.0 mg/kg/injection, schedule: Q04DX002 (ip), vehicle: Klucel (hydroxypropylcellulose) (HPC)
  survivor count: 3 of 3

## CC12CCC(C1)C(C)(C)C2C(N)=O (stereo not given)
[3]
  survivor count: 3 of 6

## CCCCCC(CN(C)C)C(O)/C=C\c1ccccc1 (stereo not given)
T/C endpoint: mean survival time, dose: 100.0 mg/kg/injection, schedule: Q04DX003 (sc), vehicle: steroid suspending solution
  survivor count: 6 of 6
T/C endpoint: mean survival time, dose: 200.0 mg/kg/injection, schedule: Q04DX003 (sc), vehicle: steroid suspending solution
  survivor count: 6 of 6
T/C endpoint: mean survival time, dose: 400.0 mg/kg/injection, schedule: Q04DX003 (sc), vehicle: steroid suspending solution
  survivor count: 4 of 6

## CC(C)CCC[C@@H](C)[C@H]1CC[C@H]2[C@@H]3CC=C4C[C@@H](OC(=O)Cc5ccc(N(CCCl)CCCl)cc5)CC[C@]4(C)[C@H]3CC[C@]12C
T/C endpoint: mean survival time, dose: 200.0 mg/kg/injection, schedule: Q01DX009 (oral), vehicle: other
  T/C: 129 % of control
T/C endpoint: mean survival time, dose: 800.0 mg/kg/injection, schedule: Q01DX009 (sc), vehicle: other
  survivor count: 6 of 6

## N#Cc1ncc(-c2ccc(Cl)cc2)nc1Cl
T/C endpoint: mean survival time, dose: 400.0 mg/kg/injection, schedule: Q01DX009 (ip), vehicle: saline
  survivor count: 5 of 6

## CCN(CC)C1=C(Cl)C(=O)C(N(CC)CC)=C(Cl)C1=O
T/C endpoint: mean survival time, dose: 100.0 mg/kg/injection, schedule: Q04DX002 (ip), vehicle: gum acacia
  survivor count: 3 of 3

## CCCC(N)C(O)c1ccccc1 (stereo not given)
[4]
  survivor count: 2 of 6

## NNC(=O)CNc1ccccc1Br
T/C endpoint: mean survival time, dose: 200.0 mg/kg/injection, schedule: Q04DX002 (ip), vehicle: Klucel (hydroxypropylcellulose) (HPC)
  survivor count: 0 of 3
T/C endpoint: mean survival time, dose: 400.0 mg/kg/injection, schedule: Q04DX002 (ip), vehicle: Klucel (hydroxypropylcellulose) (HPC)
  survivor count: 0 of 3

## CCC(N)C(O)C(Cl)(Cl)Cl (stereo not given)
[5]
  survivor count: 6 of 6
[6]
  survivor count: 4 of 6

## C/C(CC(C)(C)c1ccccc1)=N/NC(N)=O
[2]
  survivor count: 3 of 6

## CN(N=O)C(=O)NNC(=O)N(C)N=O
T/C endpoint: mean survival time, dose: 10.0 mg/kg/injection, schedule: Q01DX Z (ip), vehicle: carboxymethylcellulose (CMC)
  T/C: 125 % of control
T/C endpoint: mean survival time, dose: 12.5 mg/kg/injection, schedule: Q01DX Z (ip), vehicle: carboxymethylcellulose (CMC)
  T/C: 140 % of control
T/C endpoint: mean survival time, dose: 15.0 mg/kg/injection, schedule: Q01DX Z (ip), vehicle: carboxymethylcellulose (CMC)
  T/C: 136 % of control [4 of 6 alive]
T/C endpoint: mean survival time, dose: 25.0 mg/kg/injection, schedule: Q01DX Z (ip), vehicle: carboxymethylcellulose (CMC)
  T/C: 145 % of control
T/C endpoint: mean survival time, dose: 30.0 mg/kg/injection, schedule: Q01DX Z (ip), vehicle: carboxymethylcellulose (CMC)
  T/C: 136 % of control
T/C endpoint: mean survival time, dose: 40.0 mg/kg/injection, schedule: Q01DX Z (ip), vehicle: carboxymethylcellulose (CMC)
  survivor count: 6 of 6
T/C endpoint: mean survival time, dose: 100.0 mg/kg/injection, schedule: Q01DX Z (ip), vehicle: carboxymethylcellulose (CMC)
  survivor count: 0 of 6

## O=C(Nc1cccc(C2=NCCN2)c1)c1ccc(-c2ccc(C(=O)Nc3cccc(C4=NCCN4)c3)cc2)cc1
T/C endpoint: mean survival time, dose: 150.0 mg/kg/injection, schedule: Q01DX Z (ip), vehicle: methylcellulose (MC)
  T/C: 125 % of control [5 of 6 alive]
T/C endpoint: mean survival time, dose: 200.0 mg/kg/injection, schedule: Q01DX Z (ip), vehicle: carboxymethylcellulose (CMC)
  T/C: 129 % of control

## O=[N+]([O-])c1ccc(/C=C\c2ccncc2)cc1
T/C endpoint: mean survival time, dose: 400.0 mg/kg/injection, schedule: Q01DX009 (ip), vehicle: carboxymethylcellulose (CMC)
  survivor count: 0 of 6

## Cc1cc[n+](Cc2ccccc2Cl)c(C)c1
T/C endpoint: mean survival time, dose: 12.5 mg/kg/injection, schedule: Q01DX009 (ip), vehicle: saline
  T/C: 141 % of control
T/C endpoint: mean survival time, dose: 25.0 mg/kg/injection, schedule: Q04DX003 (ip), vehicle: saline
  survivor count: 5 of 6
T/C endpoint: mean survival time, dose: 50.0 mg/kg/injection, schedule: Q01DX001 (ip), vehicle: saline
  survivor count: 0 of 6
T/C endpoint: mean survival time, dose: 100.0 mg/kg/injection, schedule: Q01DX001 (ip), vehicle: saline
  survivor count: 0 of 6
T/C endpoint: mean survival time, dose: 200.0 mg/kg/injection, schedule: Q01DX001 (ip), vehicle: saline
  survivor count: 0 of 6

## Cc1sc(Cc2ccccc2)nc1-c1ccc(N=Cc2ccc(N(CCOS(C)(=O)=O)CCOS(C)(=O)=O)cc2)cc1
[5]
  survivor count: 6 of 6
[6]
  survivor count: 5 of 6

## CCC(C)C1NC(=O)C(NC(=O)c2c3nc4c(C(=O)NC5C(=O)NC(C(C)C)C(=O)N6CCCC6C(=O)N(C)CC(=O)N(C)C(C(C)C)C(=O)OC5C)ccc(C)c4oc-3c(C)c(=O)c2N)C(C)OC(=O)C(C(C)C)N(C)C(=O)CN(C)C(=O)C2CCCN2C1=O (stereo not given)
T/C endpoint: mean survival time, dose: 0.05 mg/kg/injection, schedule: Q01DX009 (ip), vehicle: saline
  T/C: 148 % of control
T/C endpoint: mean survival time, dose: 0.1 mg/kg/injection, schedule: Q01DX009 (ip), vehicle: saline
  T/C: 125 % of control
T/C endpoint: mean survival time, dose: 0.4 mg/kg/injection, schedule: Q01DX009 (ip), vehicle: saline
  survivor count: 4 of 6
T/C endpoint: mean survival time, dose: 6.0 micrograms/kg/injection, schedule: Q01DX009 (ip), vehicle: saline
  T/C: 132 % of control
T/C endpoint: mean survival time, dose: 12.5 micrograms/kg/injection, schedule: Q01DX009 (ip), vehicle: acetone
  T/C: 131 % of control
T/C endpoint: mean survival time, dose: 12.5 micrograms/kg/injection, schedule: Q01DX009 (ip), vehicle: saline
  T/C: 132 and 135 % of control
T/C endpoint: mean survival time, dose: 25.0 micrograms/kg/injection, schedule: Q01DX009 (ip), vehicle: saline
  T/C: 140 % of control
T/C endpoint: mean survival time, dose: 100.0 micrograms/kg/injection, schedule: Q01DX009 (ip), vehicle: saline
  survivor count: 6 of 6
T/C endpoint: median survival time, dose: 50.0 micrograms/kg/injection, schedule: Q01DX009 (ip), vehicle: water
  T/C: 136 % of control
T/C endpoint: median survival time, dose: 75.0 micrograms/kg/injection, schedule: Q04DX003 (ip), vehicle: water
  T/C: 125 % of control
T/C endpoint: median survival time, dose: 150.0 micrograms/kg/injection, schedule: Q04DX003 (ip), vehicle: water
  T/C: 134 % of control
T/C endpoint: median survival time, dose: 300.0 micrograms/kg/injection, schedule: Q04DX003 (ip), vehicle: water
  T/C: 140 % of control
T/C endpoint: median survival time, dose: 800.0 micrograms/kg/injection, schedule: Q01DX001 (ip), vehicle: water
  T/C: 140 % of control
T/C endpoint: median survival time, dose: 1600.0 micrograms/kg/injection, schedule: Q01DX001 (ip), vehicle: water
  survivor count: 3 of 10

## O=c1[nH][nH]c2ccccc12
T/C endpoint: mean survival time, dose: 62.5 mg/kg/injection, schedule: Q01DX Z (ip), vehicle: other
  survivor count: 6 of 6

## N#Cc1cn(C2OC(CO)C(O)C2O)c2ncn3ccnc3c12 (stereo not given)
T/C endpoint: mean survival time, dose: 400.0 mg/kg/injection, schedule: Q04DX003 (ip), vehicle: water
  T/C: 127 % of control (2×)

## CN(Cc1ccccc1O)C1CCCCC1
T/C endpoint: mean survival time, dose: 150.0 mg/kg/injection, schedule: Q01DX001 (ip), vehicle: saline
  survivor count: 3 of 6
[4]
  survivor count: 0 of 6

## O=[N+]([O-])c1ccc(N=C=S)cc1
T/C endpoint: mean survival time, dose: 100.0 mg/kg/injection, schedule: Q04DX003 (ip), vehicle: Klucel (hydroxypropylcellulose) (HPC)
  survivor count: 1 of 3
T/C endpoint: mean survival time, dose: 200.0 mg/kg/injection, schedule: Q04DX003 (ip), vehicle: Klucel (hydroxypropylcellulose) (HPC)
  survivor count: 0 of 3
[3]
  survivor count: 0 of 3

## NCCSSCCN
T/C endpoint: mean survival time, dose: 400.0 mg/kg/injection, schedule: Q04DX002 (ip), vehicle: saline
  survivor count: 1 of 3
